Construct, isoform or probe ends are uncertain for at least one entry. For some assays here: At least one result comes from cells or an extract, where the contact may be indirect. For some assays here: Protein sequences can lack the tags named with them.
How the values were obtained:
[1] = tested on: beta-ARB (Mr 38,000 protein in ribosomal salt wash); test: binding assay; conditions: UV-crosslinking, RSW, 22 C, heparin and yeast tRNA; self-competed in FIG. 3A; protein in an extract; label: 32P-UTP uniform, 5'-capped
[2] = tested on: T1, p37AUF1 (His6-AUF1 fusion, hnRNP D) (Homo sapiens); test: binding assay; conditions: UV-crosslinking; lanes with 10- and 100-fold unlabeled beta1-AR RNA competitor; purified recombinant protein; protein details: N-terminal His6 (pTrcHisB, E. coli TOP10); label: 32P-UTP uniform, 5'-capped
T1 sequence (looked up, limits assumed): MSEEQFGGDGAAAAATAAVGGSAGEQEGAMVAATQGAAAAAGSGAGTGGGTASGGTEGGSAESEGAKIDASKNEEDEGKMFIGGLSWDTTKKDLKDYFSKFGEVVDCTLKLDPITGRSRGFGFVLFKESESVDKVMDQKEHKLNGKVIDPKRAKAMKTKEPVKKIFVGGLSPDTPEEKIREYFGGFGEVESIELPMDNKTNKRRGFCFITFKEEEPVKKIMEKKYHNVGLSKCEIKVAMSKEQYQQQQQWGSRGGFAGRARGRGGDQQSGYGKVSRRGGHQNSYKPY

**Q.** Which results are given for “AGGGCCCGGCGCGGGGCGCGGACCCGGGCACGGCCCCAGGGGAACGAGGAGACGGACAAGACCGAAGCAGGGAACCGAAGCCCACAACCCGCGAACACCGAGGCAAAGAGAAAAGCCACGGACCGGCACAAAAAGGAAAGGGGAAGGGAGGGAGAGGGCGCGAGCCGGCCCCCCCGGGGCCGGCCCGGGGCGGGAGCACAGACCCCCACCAGGGGGCACACCCGAGAGGACCGGAGGGAAGAGGGGGGAGGGGAAGGGAGAAGCAAGGGAGGCAAAAACGACACGCCGACCCACCCCCCGGGAACAGGAACACACACCGACCAGAGAGAGGAGAAGACAGGCAAGACAACCGCCCAGAGAAACAAACAAGAAGACGCGAGAAAGCAAAGAGAAAGGAGGAGGCAAAAAAAAAAAAACACGCAAGAAAGAAGCCCGGAACAAGCCCCACCGCCCGGAGGGCAAACCCGCGCCCCCGCGCGCCGGGGGCAGGCGAGGGACACCCACACGGCAGCACAGCAGAAGAAAGACGAAAAACAGCAAGACAAAAGGGAAGGACCAGGCGCAGAGCCCCCGGACAGGACCGCAAGAAGACAGGACAAAAAGAGAGCAGAGAGAGAGAAACAGCAGAACGCACAGGGAAAAAACAAAAAAGACAAGCAGCGACAGAG [human beta1-AR 3'UTR RNA]”?
**A.** binding result [1]: binds; binding result [2]: binds

Source: patent US5733728
